In this assay the target is Rps27 (S. cerevisiae (endogenous in strain BY4741)) (UniProt P35997). The assay is described as follows: cryo-EM structure.

Sequences of proteins named here, by UniProt entry; tags and fusion partners are left off. A change or cut given only in a name is not applied to a line headed by its entry.
UniProt P35997: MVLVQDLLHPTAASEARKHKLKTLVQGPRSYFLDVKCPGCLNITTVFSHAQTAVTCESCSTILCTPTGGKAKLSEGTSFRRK

Binding data for one molecule are collected here from publication doi:10.1101/2020.09.16.299644.

No constants are given. Whether binding was seen depends on the method and setting. Binding can be weak; no strength is given.

B1: Rrp7 (protein, UniProt P25368 1-297)
chain: MGIEDISAMKNGFIVVPFKLPDHKALPKSQEASLHFMFAKRHQSSNSNESDCLFLVNLPLLSNIEHMKKFVGQLCGKYDTVSHVEELLYNDEFGLHEVDLSALTSDLMSSTDVNEKRYTPRNTALLKFVDAASINNCWNALKKYSNLHAKHPNELFEWTYTTPSFTTFVNFYKPLDIDYLKEDIHTHMAIFEQREAQAQEDVQSSIVDEDGFTLVVGKNTKSLNSIRKKILNKNPLSKHENKAKPISNIDKKAKKDFYRFQVRERKKQEINQLLSKFKEDQERIKVMKAKRKFNPYT
For B1, the binding entry is listed as “binds”.
